This experiment deals with Connexin 43 (Cx43), endogenous (human (endogenous in primary ligament fibroblasts from patients)) (UniProt P17302). Briefly: co-IP; primary ligament fibroblast extract with anti-USP9X antibody, anti-Cx43 antibody or control IgG for 1 h at 4°C, A/G-agarose 3 h at 4°C, washed three times with lysis buffer, Western blotting; endogenous proteins. (A western blot detects proteins with antibodies after separation by electrophoresis.)

The chains behind the UniProt entries cited, without tags or fusion partners.
UniProt P17302: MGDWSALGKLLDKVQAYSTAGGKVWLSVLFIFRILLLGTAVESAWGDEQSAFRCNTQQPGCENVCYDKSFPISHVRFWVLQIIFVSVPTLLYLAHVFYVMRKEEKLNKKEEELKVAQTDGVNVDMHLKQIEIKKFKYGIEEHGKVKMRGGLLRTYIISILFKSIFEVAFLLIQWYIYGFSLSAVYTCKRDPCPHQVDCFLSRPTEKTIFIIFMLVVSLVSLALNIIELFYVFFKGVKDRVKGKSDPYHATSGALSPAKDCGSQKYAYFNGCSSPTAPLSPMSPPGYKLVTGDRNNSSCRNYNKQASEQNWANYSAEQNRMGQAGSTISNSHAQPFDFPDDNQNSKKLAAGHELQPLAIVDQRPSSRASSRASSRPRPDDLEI
UniProt Q93008: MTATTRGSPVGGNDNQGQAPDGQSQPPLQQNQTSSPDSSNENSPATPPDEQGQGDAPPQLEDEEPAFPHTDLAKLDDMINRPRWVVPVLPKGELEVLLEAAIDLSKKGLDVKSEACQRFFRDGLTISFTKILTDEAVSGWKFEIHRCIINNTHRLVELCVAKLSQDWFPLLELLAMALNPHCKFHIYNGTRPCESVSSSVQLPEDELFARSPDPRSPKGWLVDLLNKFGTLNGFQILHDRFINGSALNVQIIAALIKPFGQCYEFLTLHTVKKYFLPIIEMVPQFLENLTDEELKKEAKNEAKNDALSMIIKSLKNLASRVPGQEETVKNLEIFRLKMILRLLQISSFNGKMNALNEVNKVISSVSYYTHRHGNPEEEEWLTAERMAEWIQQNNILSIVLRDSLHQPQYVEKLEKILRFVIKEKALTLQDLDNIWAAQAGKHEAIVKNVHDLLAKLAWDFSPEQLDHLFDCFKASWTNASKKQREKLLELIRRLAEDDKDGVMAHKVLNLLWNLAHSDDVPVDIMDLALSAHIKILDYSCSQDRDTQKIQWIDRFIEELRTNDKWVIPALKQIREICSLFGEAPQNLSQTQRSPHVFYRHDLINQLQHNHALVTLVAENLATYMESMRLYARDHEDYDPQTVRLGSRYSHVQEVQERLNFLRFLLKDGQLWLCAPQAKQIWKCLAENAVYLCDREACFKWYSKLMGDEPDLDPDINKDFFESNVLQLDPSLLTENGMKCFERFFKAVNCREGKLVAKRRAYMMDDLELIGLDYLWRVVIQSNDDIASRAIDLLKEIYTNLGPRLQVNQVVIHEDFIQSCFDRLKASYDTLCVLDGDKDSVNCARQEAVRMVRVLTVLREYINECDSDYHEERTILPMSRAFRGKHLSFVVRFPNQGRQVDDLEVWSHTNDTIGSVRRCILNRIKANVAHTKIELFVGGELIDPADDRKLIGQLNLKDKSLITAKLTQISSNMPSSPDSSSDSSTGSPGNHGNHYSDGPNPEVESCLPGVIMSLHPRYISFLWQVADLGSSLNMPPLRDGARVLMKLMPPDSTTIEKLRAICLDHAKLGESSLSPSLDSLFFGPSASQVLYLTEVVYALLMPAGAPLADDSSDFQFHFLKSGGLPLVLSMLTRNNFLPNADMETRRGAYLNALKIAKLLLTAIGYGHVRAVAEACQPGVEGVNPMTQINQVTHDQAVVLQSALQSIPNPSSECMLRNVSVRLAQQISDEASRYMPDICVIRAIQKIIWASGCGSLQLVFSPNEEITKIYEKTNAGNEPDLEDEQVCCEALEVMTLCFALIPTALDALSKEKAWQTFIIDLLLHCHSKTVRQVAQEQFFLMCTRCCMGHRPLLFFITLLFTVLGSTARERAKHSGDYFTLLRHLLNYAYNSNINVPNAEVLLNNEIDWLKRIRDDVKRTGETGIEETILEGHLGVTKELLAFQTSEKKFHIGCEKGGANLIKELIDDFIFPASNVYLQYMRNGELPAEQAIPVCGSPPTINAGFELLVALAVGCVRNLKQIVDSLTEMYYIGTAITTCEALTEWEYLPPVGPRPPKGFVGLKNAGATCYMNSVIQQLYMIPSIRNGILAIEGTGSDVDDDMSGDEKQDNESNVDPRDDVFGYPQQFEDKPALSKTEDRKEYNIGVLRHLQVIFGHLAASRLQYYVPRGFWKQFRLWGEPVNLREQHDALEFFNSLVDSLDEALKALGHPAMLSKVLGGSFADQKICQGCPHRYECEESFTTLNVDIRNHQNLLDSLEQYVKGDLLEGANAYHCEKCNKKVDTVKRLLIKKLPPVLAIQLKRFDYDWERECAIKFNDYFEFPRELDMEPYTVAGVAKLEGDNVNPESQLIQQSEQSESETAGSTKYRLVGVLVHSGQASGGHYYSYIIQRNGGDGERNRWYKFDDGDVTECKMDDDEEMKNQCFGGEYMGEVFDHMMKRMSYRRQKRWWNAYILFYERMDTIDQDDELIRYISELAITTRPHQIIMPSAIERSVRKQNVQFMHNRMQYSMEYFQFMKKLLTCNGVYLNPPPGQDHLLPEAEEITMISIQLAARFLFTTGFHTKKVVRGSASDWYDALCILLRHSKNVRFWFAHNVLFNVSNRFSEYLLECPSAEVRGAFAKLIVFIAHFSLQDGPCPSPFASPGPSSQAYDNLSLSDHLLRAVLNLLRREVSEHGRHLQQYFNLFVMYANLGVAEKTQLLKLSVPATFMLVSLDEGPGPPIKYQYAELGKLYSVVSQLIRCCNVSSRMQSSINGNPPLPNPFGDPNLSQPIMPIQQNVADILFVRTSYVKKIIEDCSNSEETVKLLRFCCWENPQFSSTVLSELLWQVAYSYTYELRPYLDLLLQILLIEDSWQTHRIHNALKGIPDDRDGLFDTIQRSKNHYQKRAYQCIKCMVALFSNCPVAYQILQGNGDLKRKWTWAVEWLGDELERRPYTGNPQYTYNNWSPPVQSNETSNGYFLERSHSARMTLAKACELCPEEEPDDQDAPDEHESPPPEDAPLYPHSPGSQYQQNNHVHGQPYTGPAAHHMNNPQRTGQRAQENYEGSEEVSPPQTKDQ

Experimental findings from publication PMC8983240 are described below.

No constants are given. Whether binding was seen depends on the method and setting. In cells and extracts the contact can be indirect. Some binding calls cover weakened binding; strength is not graded here.

In the case of “Ubiquitin-specific protease 9 X-chromosome (USP9X) (from UniProt Q93008 1-2554) (enzyme)”, the binding entry is reported as “binds”.
